The target in this assay is T1, GFP-tagged SIRT2 (SIRT2-GFP), wild type (UniProt Q8IXJ6).
T1 sequence: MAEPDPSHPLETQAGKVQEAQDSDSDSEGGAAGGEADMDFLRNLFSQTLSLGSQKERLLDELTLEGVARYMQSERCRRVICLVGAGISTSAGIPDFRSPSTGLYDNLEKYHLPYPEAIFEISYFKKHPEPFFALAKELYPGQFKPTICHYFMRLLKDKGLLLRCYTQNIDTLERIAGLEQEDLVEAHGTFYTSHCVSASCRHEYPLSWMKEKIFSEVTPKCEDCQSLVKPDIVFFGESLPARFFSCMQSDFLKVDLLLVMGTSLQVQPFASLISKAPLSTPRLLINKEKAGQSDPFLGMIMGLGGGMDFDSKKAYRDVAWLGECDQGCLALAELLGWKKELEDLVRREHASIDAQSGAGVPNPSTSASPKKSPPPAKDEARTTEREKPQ
The assay can be described thus: co-IP; GFP-Trap agarose beads on lysate of isolated HeLa nuclei (MNase digestion, RIPA); cells uninfected or infected with L. monocytogenes for 3 hours; also in HeLa stably expressing SIRT2-GFP and transfected with mCherry or RNaseH1; washes up to 300 mM NaCl; blot for TDP-43 and GFP.

Chains of the proteins cited; added tags and fusions are not shown.
UniProt Q13148: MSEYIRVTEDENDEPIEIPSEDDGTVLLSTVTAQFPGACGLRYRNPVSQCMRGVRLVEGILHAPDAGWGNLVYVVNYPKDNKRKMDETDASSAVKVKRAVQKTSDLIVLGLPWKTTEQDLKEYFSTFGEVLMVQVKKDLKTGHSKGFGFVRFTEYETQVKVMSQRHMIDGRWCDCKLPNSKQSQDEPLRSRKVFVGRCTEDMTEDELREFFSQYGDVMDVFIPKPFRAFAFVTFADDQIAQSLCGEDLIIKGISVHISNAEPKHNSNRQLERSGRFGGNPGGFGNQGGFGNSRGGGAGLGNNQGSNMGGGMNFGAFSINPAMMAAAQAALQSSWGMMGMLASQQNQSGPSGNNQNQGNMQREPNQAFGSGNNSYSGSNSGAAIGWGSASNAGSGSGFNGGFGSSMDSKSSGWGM

Results are given in words; binding and its absence hold for the method and conditions named. In cells and extracts the contact can be indirect. Some results given as binding are weak or reduced against the parent protein; the word gives no strength. Tags and fused reporters may be left off the sequences shown.

For “TDP-43 (endogenous, nuclear) (from UniProt Q13148 1-414)”, the binding result is given as “binds”.
